Data as given in patent US6838446B1, “Vector for expression of GPI-enzyme hybrid” (AstraZeneca AB, priority 1999, dated 2005).
Residue numbers refer to the chain shown, from its start. Some of these results come from one statement about several compounds together.

B1: CPG2: carboxypeptidase G2 with kappa light chain secretory leader, unaltered glycosylation sites, expressed from mammalian cells (pNG3/RC/CPG2) (protein, UniProt P06621 23-415, looked up)
Carboxypeptidase G2: ALAQKRDNVLFQAATDEQPAVIKTLEKLVNIETGTGDAEGIAAAGNFLEAELKNLGFTVTRSKSAGLVVGDNIVGKIKGRGGKNLLLMSHMDTVYLKGILAKAPFRVEGDKAYGPGIADDKGGNAVILHTLKLLKEYGVRDYGTITVLFNTDEEKGSFGSRDLIQEEAKLADYVLSFEPTSAGDEKLSLGTSGIAYVQVNITGKASHAGAAPELGVNALVEASDLVLRTMNIDDKAKNLRFNWTIAKAGNVSNIIPASATLNADVRYARNEDFDAAMKTLEERAQQKKLPEADVKVIVTRGRPAFNAGEGGKKLVDKAVAYYKEAGGTLGVEERTGGGTDAAYAALSGKPVIESLGLPGFGYHSDKAEYVDISAIPRRLYMAARLIMDLGAGK
modifications: kappa light chain secretory leader
B2: CPG2(Q3): CPG2 with asparagine at positions 222, 264 & 272 mutated to glutamine, secreted form (protein, UniProt P06621 23-415, looked up, variant N222Q N264Q N272Q)
Carboxypeptidase G2: B1 Carboxypeptidase G2 with N200Q, N242Q, N250Q
modifications: secreted form
notes: CPG2 with asparagine at positions 222, 264 & 272 mutated to glutamine, secreted form

System: COS 7 cells
Assay: FACS detection of membrane associated CPG2 protein on transiently transfected COS 7 cells
Format: cell-based

| Molecule | cells displaying CPG2 (membrane associated) |
| --- | --- |
| B1 | ≤ 2% |
| B2 | ≤ 2% |
